Experimental data published in US11707447B1.
Entries after “also recorded” stand apart in the source; their conditions may differ. At least one structure is not confirmed: it was looked up by name or label, or the drawing left a doubt.

Sequences of proteins named here, by UniProt entry; tags and fusion partners are left off.
UniProt P28223, whole entry: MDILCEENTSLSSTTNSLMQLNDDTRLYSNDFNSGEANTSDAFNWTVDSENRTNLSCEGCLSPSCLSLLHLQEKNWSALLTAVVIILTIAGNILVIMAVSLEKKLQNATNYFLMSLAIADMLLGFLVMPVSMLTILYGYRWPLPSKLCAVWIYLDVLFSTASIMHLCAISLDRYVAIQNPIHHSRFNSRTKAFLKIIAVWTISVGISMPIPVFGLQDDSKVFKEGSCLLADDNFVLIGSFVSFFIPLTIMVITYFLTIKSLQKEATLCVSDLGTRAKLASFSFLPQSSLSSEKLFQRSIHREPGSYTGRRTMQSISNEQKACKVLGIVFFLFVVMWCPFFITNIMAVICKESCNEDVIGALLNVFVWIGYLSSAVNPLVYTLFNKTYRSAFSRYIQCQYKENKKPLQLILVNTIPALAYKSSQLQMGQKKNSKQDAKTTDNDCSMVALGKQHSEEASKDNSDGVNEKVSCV
UniProt P35363, whole entry: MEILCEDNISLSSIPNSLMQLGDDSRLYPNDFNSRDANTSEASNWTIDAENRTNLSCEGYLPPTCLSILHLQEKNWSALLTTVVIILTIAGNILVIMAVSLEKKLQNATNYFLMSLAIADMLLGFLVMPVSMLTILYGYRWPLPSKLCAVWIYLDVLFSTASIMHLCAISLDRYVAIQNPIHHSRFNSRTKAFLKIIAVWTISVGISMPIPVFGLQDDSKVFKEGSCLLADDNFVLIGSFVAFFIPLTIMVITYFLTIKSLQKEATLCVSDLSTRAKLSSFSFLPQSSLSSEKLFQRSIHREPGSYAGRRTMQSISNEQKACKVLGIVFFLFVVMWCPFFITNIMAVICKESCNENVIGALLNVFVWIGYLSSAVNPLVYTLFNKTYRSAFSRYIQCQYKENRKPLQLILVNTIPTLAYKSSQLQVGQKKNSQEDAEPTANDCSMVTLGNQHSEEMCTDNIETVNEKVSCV

What was measured:
5-HT2A receptor [1] = biological target: 5-HT2A receptor (Homo sapiens, UniProt P28223); details: cited: McKenna and Peroutka 1989; PDSP; cited from earlier work
5-HT2A receptor [2] = biological target: T1, 5-HT2A receptor (Mus musculus, UniProt P35363); assay: Drug-induced Head Twitch Response (HTR) in mice; format: in vivo; details: 1 mg/kg i.p., 15-to-30-minute window after dosing, vs vehicle
T1 construct: tissue Charles River; host or cells: whole animal, C57BL/6-Elite mice (brain neurons)

CN(C)CCc1c[nH]c2cccc(OP(=O)(O)O)c12 [psilocybin, reference compound]
5-HT2A binding of intact molecule (literature) (5-HT2A receptor [1]): very weak; also recorded: arguably negligible
Head Twitch Response (in words) (5-HT2A receptor [2]): Elevated incidences of HTR
